Results from article PMC11576475.
No constants are given. Whether binding was seen depends on the method and setting. In cells and extracts the contact can be indirect. Here binding means that the protein was enriched with, or labelled near, the bait; the list need not be complete. For part of these data: Sequences can lack the tags named with a protein.

Amino acid sequences for entries named in this document (tags omitted). A change or cut given only in a name is not applied to a line headed by its entry.
UniProt O95817: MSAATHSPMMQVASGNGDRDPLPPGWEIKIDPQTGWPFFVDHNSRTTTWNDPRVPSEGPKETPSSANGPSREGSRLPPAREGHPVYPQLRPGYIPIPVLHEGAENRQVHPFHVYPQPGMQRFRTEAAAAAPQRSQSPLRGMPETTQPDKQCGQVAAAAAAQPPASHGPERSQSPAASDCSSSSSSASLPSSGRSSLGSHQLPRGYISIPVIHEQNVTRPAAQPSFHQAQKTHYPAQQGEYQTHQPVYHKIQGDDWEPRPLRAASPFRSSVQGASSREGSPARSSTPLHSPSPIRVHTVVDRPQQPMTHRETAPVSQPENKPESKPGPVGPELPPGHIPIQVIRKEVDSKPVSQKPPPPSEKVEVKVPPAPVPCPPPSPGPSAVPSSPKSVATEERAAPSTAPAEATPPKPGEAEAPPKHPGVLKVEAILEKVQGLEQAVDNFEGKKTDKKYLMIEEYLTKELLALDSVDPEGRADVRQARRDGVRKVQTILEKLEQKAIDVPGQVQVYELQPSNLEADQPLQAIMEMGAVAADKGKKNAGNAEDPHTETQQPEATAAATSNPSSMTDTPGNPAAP
UniProt O95433: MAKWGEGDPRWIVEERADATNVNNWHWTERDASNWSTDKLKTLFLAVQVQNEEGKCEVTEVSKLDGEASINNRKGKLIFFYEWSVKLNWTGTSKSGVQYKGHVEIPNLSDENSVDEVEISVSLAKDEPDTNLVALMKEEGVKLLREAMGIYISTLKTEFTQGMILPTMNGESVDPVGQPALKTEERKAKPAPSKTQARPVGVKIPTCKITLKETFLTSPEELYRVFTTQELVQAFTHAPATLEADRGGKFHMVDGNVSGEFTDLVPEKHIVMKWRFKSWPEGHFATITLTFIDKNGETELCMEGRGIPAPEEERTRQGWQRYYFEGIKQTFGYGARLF

T1: N-terminally triple-FLAG-tagged human PP5 (protein phosphatase-5) (human) (UniProt P53041)
T1 sequence: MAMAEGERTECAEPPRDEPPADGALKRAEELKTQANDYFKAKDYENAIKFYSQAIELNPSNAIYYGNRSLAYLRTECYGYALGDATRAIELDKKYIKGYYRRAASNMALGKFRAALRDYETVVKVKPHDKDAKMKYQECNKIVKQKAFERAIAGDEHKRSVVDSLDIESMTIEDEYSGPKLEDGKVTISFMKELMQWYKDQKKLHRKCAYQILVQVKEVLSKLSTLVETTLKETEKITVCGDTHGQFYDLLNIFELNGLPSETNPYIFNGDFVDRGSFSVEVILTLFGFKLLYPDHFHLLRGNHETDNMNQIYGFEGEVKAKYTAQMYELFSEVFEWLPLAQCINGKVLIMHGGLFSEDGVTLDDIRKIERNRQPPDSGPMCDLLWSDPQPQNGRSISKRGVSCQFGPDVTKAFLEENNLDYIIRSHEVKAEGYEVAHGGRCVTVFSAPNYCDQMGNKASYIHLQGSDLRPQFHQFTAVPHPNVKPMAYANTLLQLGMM

B1: Hsp90 co-chaperone Cdc37 (protein, UniProt Q16543 1-378)
chain: MVDYSVWDHIEVSDDEDETHPNIDTASLFRWRHQARVERMEQFQKEKEELDRGCRECKRKVAECQRKLKELEVAEGGKAELERLQAEAQQLRKEERSWEQKLEEMRKKEKSMPWNVDTLSKDGFSKSMVNTKPEKTEEDSEEVREQKHKTFVEKYEKQIKHFGMLRRWDDSQKYLSDNVHLVCEETANYLVIWCIDLEVEEKCALMEQVAHQTIVMQFILELAKSLKVDPRACFRQFFTKIKTADRQYMEGFNDELEAFKERVRGRAKLRIEKAMKEYEEEERKKRLGPGGLDPVEVYESLPEELQKCFDVKDVQMLQDAISKMDPTDAKYHMQRCIDSGLWVPNSKASEAKEGEEAGPGDPLLEAVPKTGDEKDVSV
B2: CHORDC1 (protein, UniProt Q9UHD1 1-332)
chain: MALLCYNRGCGQRFDPETNSDDACTYHPGVPVFHDALKGWSCCKRRTTDFSDFLSIVGCTKGRHNSEKPPEPVKPEVKTTEKKELCELKPKFQEHIIQAPKPVEAIKRPSPDEPMTNLELKISASLKQALDKLKLSSGNEENKKEEDNDEIKIGTSCKNGGCSKTYQGLESLEEVCVYHSGVPIFHEGMKYWSCCRRKTSDFNTFLAQEGCTKGKHMWTKKDAGKKVVPCRHDWHQTGGEVTISVYAKNSLPELSRVEANSTLLNVHIVFEGEKEFDQNVKLWGVIDVKRSYVTMTATKIEITMRKAEPMQWASLELPAAKKQEKQKDATTD
B3: protein phosphatase-5 (PP5), endogenous (enzyme, UniProt P53041 1-499)
chain: T1 sequence

Experiments:
[1] = target: T1, N-terminally triple-FLAG-tagged human PP5 (protein phosphatase-5) (human); assay: affinity purification with mass spectrometry; triple-FLAG-tagged bait (BAG3 or PP5) overexpressed in HEK293 for 24 h; lysate (100 mM NaCl, 10 mM Tris, 0.1% IGEPAL, 1 mM EDTA, 1 mM EGTA, 20 nM Calyculin A, 1 mM DTT, 1 mM MnCl2) with anti-FLAG M2 magnetic beads 2 h at 4°C; in-gel digestion, LC-MS; triple-FLAG tag as control; enriched: more than fivefold, P ≤ 0.05 (rank sum), n = 4
[2] = target: FLAG-BAG3-S284D/T285D/S289D/S291D (human) (UniProt O95817); assay: affinity purification with mass spectrometry; FLAG-BAG3 wt, 4A or 4D overexpressed in HEK293, precipitated with anti-FLAG beads, on-bead tryptic digestion, LC-MS; PP5/BAG3 intensity ratios, n = 3
[3] = target: FLAG-BAG3-S284A/T285A/S289A/S291A (human) (UniProt O95817); assay: as above

Row | Molecule | binding [1] | binding [2] | binding [3]
1 | BAG3, endogenous (from UniProt O95817 1-575) | binds |  | 
2 | AHSA1 (from UniProt O95433 1-338) | binds |  | 
3 | B1 | binds |  | 
4 | B2 | binds |  | 
5 | B3 |  | binds | binds
